The test concerns the target T1, untagged mouse ASC (ASC specks) (mouse) (UniProt Q9EPB4).
T1 sequence: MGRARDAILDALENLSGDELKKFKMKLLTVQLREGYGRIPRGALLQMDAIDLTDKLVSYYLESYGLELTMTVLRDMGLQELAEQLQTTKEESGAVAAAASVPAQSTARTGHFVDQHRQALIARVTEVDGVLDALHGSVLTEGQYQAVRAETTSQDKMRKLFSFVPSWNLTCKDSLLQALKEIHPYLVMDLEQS
In words: staining of fixed, permeabilized cells with soluble fluorescent protein (recruitment assay); HEK293 cells with untagged mouse ASC specks fixed with 4% formaldehyde, permeabilized with 0.1% Triton X-100, incubated 30 min with soluble caspase-1 CARD-EGFP (1:50 in PBS) or ASC-RFP (1:5 in PBS) from cytosolic extracts; fluorescence of specks measured by microscopy; cells unstimulated or stimulated with hypotonic solution (90 mOsm) or nigericin before fixation.

These are yes or no findings as the source states them, for the method shown. Some entries that bind do so weakly or less than the wild type. Where a sequence is shown, tags or fusion partners need not be part of it.

B1: mouse caspase-1 CARD domain tagged with EGFP (domain or fragment, UniProt P29452 1-91)
chain: MADKILRAKRKQFINSVSIGTINGLLDELLEKRVLNQEEMDKIKLANITAMDKARDLCDHVSKKGPQASQIFITYICNEDCYLAGILELQS
Turning to B1, the binding entry is given as “binds”.

These data come from paper PMC10318405.
